# According to PubChem BioAssay AID540256 (National Center for Advancing Translational Sciences (NCATS), 2011):
# About 3,700 (1.2%) of roughly 300,000 compounds were called active. Inconclusive results, whose numbers are uncertain, are shown with a selection of clear calls. The call rests on the fitted dose curve; tested in HEK293 cells. Potencies beside an inconclusive call are fits to weak or partial responses and may not hold up.
# Assay: qHTS for Inhibitors of binding or entry into cells for Lassa Virus; further: nearly all actives have a fitted effect of over 50% in size
# Conditions: Lassa virus pseudotype entry inhibition, cell reporter; activity change, negative = inhibition: at 37.9 µM (top of the series) unless noted
# On the % scale 0 is the no-effect control and ±100 the full control effect; potency means the concentration at half of the fitted maximal effect.
SMILES,"activity change, negative = inhibition",Potency
CC1Cc2ccccc2N1C(=O)CSc1nccc(=O)[nH]1 (stereo unspecified),inactive: -13.1%,
O=S(=O)(c1ccc(Cl)c(C(F)(F)F)c1)N1CCN(CC(O)COc2ccccc2F)CC1 (stereo unspecified),inactive: -19.1%,
N/C(=N\NS(=O)(=O)c1ccccc1Cl)c1ccccn1,inactive: 3.67% [at 46.1 µM],
Cc1ccc(NC(=O)CCC(=O)NNC(=O)c2cccs2)cc1C,,"inconclusive: 1.64 µM [activator, single point]"
CCOC(=O)N/N=C\c1ccc(OC/C=C/c2ccccc2)c(OC)c1,,"inconclusive: 14.1 µM [inhibitor, single point]"
COc1ccc(OC)c(S(=O)(=O)N2CCC3(CC2)OCCN3S(=O)(=O)c2ccccc2)c1,inactive: -10.9%,
Cc1ccc(OCc2n[nH]c(=S)n2-c2ccccc2)cc1C,,"inconclusive: 35.5 µM [inhibitor, single point]"
COc1ccc(/C=C2\CCc3ccccc3C2=O)c(OC)c1OC,,"inconclusive: 35.5 µM [inhibitor, single point]"
O=c1cc(CN2CC(O)Cc3ccc4ccccc4c32)nc2sccn12 (stereo unspecified),inactive: -2.77% [at 46.1 µM],
CC(C)Oc1ccc(CNCCC2(C(C)C)CCOC(C)(C)C2)cc1 (stereo unspecified),,"inconclusive: 16.4 µM [inhibitor, single point]"
CCN(CC)c1ccc(/C=N/NC(=O)c2c(Cl)cnn2C)c(O)c1,,active: 20.6 µM
CCOc1ccc(/C=C/c2nc(C#N)c(Nc3ccc(OCC)cc3)o2)cc1,,"inconclusive: 2.24 µM [inhibitor, full curve]"
CCCCC(=O)Nc1ccc(C(=O)Nc2cccnc2)cc1,,"inconclusive: 18.3 µM [activator, single point]"
COC(=O)c1c(C)nn(-c2ccc(F)c(Cl)c2)c1-c1cc(C)on1,,"inconclusive: 22.4 µM [inhibitor, partial curve, poor fit]"
CCOC(Cn1c(CCCO)nc2ccccc21)OCC,,"inconclusive: 3.26 µM [activator, full curve, poor fit]"
O=C(CCCn1ccc2cc(S(=O)(=O)N3CCCC3)ccc21)NCc1ccc(Cl)cc1,,"inconclusive: 8.91 µM [inhibitor, partial curve]"
FC(F)(F)c1cnc(Sc2nc3nccc(-c4ccc(Cl)cc4)n3n2)c(Cl)c1,,"inconclusive: 29.1 µM [inhibitor, single point]"
Oc1cccc(/C=N/c2c(-c3ccco3)nc3ccccn23)c1,inactive: -2.22%,
Cc1cccc(C(=O)OCC(=O)N(CC(C)C)c2c(N)n(Cc3ccccc3)c(=O)[nH]c2=O)c1C,,"inconclusive: 22.4 µM [inhibitor, single point]"
CCN(CC)CCCN1C(=O)C(O)=C(C(=O)c2ccco2)C1c1ccc(OC(C)C)cc1 (stereo unspecified),,"inconclusive: 25.1 µM [activator, single point]"
NC(=S)Nc1cccc2cccnc12,inactive: 0.977%,
Cc1ccc(CSC2=Nc3ccccc3C3=NC(CC(=O)NCc4cccs4)C(=O)N23)cc1 (stereo unspecified),,"inconclusive: 12.6 µM [inhibitor, partial curve, poor fit]"

# Sorted by SMILES length (low to high): some entries from above.
SMILES,"activity change, negative = inhibition",Potency
NC(=S)Nc1cccc2cccnc12,inactive: 0.977%,
Cc1ccc(OCc2n[nH]c(=S)n2-c2ccccc2)cc1C,,"inconclusive: 35.5 µM [inhibitor, single point]"
CCN(CC)c1ccc(/C=N/NC(=O)c2c(Cl)cnn2C)c(O)c1,,active: 20.6 µM
CCN(CC)CCCN1C(=O)C(O)=C(C(=O)c2ccco2)C1c1ccc(OC(C)C)cc1 (stereo unspecified),,"inconclusive: 25.1 µM [activator, single point]"

# Remaining list, next part:

SMILES,"activity change, negative = inhibition",Potency
Cc1ccc(CNC(=O)c2cc3c(s2)-c2ccc(Cl)cc2SC3)cc1,,"inconclusive: 6.31 µM [inhibitor, single point]"
COc1ccc(-c2nnn(CC(=O)N3CCN(c4ccccc4OC)CC3)n2)cc1OC,,"inconclusive: 11.2 µM [inhibitor, partial curve, poor fit]"
O=C(NCc1ccccc1)c1ccc(CS(=O)Cc2ccc(Cl)cc2)o1 (stereo unspecified),,"inconclusive: 7.08 µM [inhibitor, partial curve, poor fit]"
Cc1c(C(=O)Nc2ccc(F)cc2)oc2ccc(S(=O)(=O)N3CCC4(CC3)OCCO4)cc12,,"inconclusive: 20.6 µM [inhibitor, single point]"
Fc1ccc(/C=N/n2c(COc3ccccc3)n[nH]c2=S)cc1,,"inconclusive: 4.47 µM [inhibitor, full curve]"
CCOC(=O)C1(Cc2cccc(Cl)c2)CCCN(C(=O)c2ccc(C)nc2)C1 (stereo unspecified),inactive: -28.9%,
Cc1nnnn1-c1cccc(C(=O)O)c1,,"inconclusive: 4.61 µM [activator, full curve]"
COc1cccc(/C=C2\SC(=O)N(CCC(=O)NNC(=O)c3cccc(Cl)c3)C2=O)c1,,active: 1.58 µM
O=C(Nc1nnc(C2CC2)s1)c1ccccn1,,"inconclusive: 11.6 µM [inhibitor, partial curve, poor fit]"
O=C(CN1CCN(S(=O)(=O)c2ccc(Br)cc2)CC1)Nc1ccccc1C(=O)c1ccccc1,,"inconclusive: 15.8 µM [inhibitor, single point]"
NC(=O)c1ccccc1NC(=O)c1ccc2ccccc2c1,,"inconclusive: 35.5 µM [inhibitor, partial curve, poor fit]"
CCOc1ccc(NC(=O)Nc2cc(-c3ccccc3)sc2C(=O)OC)cc1,,"inconclusive: 7.08 µM [inhibitor, partial curve, poor fit]"
CCN1CCN(c2cc(C(C)(C)C)nc3c(-c4ccccc4)c(C)nn23)CC1,,"inconclusive: 2.06 µM [inhibitor, partial curve, poor fit]"
CSc1ccc(/C=N\NC(=O)COc2ccc(Cl)cc2Br)cc1,,"inconclusive: 13 µM [inhibitor, partial curve]"
O=[N+]([O-])c1ccc2nc(NN=Cc3ccc(O)cc3)sc2c1,inactive: -24.8% [at 46.1 µM],
Cc1cc(N2CCN(C)CC2)ccc1NC(=O)c1c2c(nc3ccccc13)CCN(Cc1ccccc1)C2,,"inconclusive: 7.94 µM [inhibitor, partial curve, poor fit]"
O=S(=O)(NC1=NCCCCC1)c1ccc(F)cc1F,,"inconclusive: 0.112 µM [inhibitor, full curve, poor fit]"
O=[N+]([O-])c1ccc(S(=O)(=O)NN=CCCc2ccccc2)cc1,,"inconclusive: 3.55 µM [inhibitor, full curve]"
CN([C@@H](Cc1ccc(OS(=O)(=O)c2cccc3cnccc23)cc1)C(=O)N1CCN(c2ccccc2)CC1)S(=O)(=O)c1cccc2cnccc12,,"inconclusive: 18.4 µM [inhibitor, single point]"
C#CCN(C(=O)c1cc(COc2ccc(C)c(C)c2)on1)C1CCCCC1,,"inconclusive: 1.12 µM [inhibitor, partial curve, poor fit]"
O=C(OCC(=O)N1N=C(c2ccc(Cl)cc2)CC1c1ccco1)c1ccccc1O (stereo unspecified),,"inconclusive: 29.1 µM [inhibitor, single point]"
O=C(NCCCN1CCCC1)c1ccc2c(Cl)c3c(nc2c1)CCCC3,,"inconclusive: 35.5 µM [inhibitor, partial curve, poor fit]"

SMILES,"activity change, negative = inhibition",Potency
O=C(OCC(=O)N1CCOCC1)c1ccc(Cl)cc1[N+](=O)[O-],,"inconclusive: 2.82 µM [activator, partial curve, poor fit]"
CC1CCCCN1Cc1c(O)ccc2c(=O)c(-c3ccccc3)coc12 (stereo unspecified),,inactive
CC(C)c1ccc(-c2nnn(Cc3nc4ccccc4s3)n2)cc1,,"inconclusive: 1.3 µM [inhibitor, partial curve, poor fit]"
CC1CCCN(C(=O)CSc2ncccn2)C1 (stereo unspecified),inactive: 9.51%,
COc1ccc(C(=O)CNc2cccc(F)c2)cc1,,"inconclusive: 3.16 µM [activator, full curve, poor fit]"
CC(C)(C)c1ccc(-c2nc(S(=O)(=O)c3ccccc3)c(N3CCOCC3)o2)cc1,,"inconclusive: 2.51 µM [inhibitor, full curve, poor fit]"
CCOc1ccc(NC(=O)NCCn2nnc3cc(S(=O)(=O)N(C)C)ccc32)cc1,inactive: 2.5% [at 46.1 µM],
COc1ccc(S(=O)(=O)N2CCOCC2)cc1NC(=O)c1ccc(=O)[nH]c1,,"inconclusive: 7.94 µM [activator, full curve, poor fit]"
O=C(c1cccs1)N1CCN(c2ncc(C(F)(F)F)cc2Cl)CC1,,"inconclusive: 35.5 µM [inhibitor, single point]"
COc1ccccc1NC(=O)CC(=O)c1cccc([N+](=O)[O-])c1,,"inconclusive: 35.5 µM [inhibitor, single point]"
O=C(O)C1=CC(=C(c2ccc(O)c(C(=O)O)c2)c2ccc(O)c(C(=O)O)c2)C=CC1=O,,"inconclusive: 0.0009 µM [inhibitor, full curve, poor fit]"
COc1ccccc1NS(=O)(=O)c1cc([N+](=O)[O-])ccc1N/N=C/c1c[nH]c2ccccc12,inactive: -3.89%,
O=C(NC1CCCC1)c1cc(-c2ccccc2)on1,,"inconclusive: 35.5 µM [inhibitor, single point]"
CCOc1ccc(NC(=S)NC(=O)c2cncc(Br)c2)cc1,inactive: -7.93%,
CCc1ccc(NC(=O)c2ccc(F)c(S(=O)(=O)N(CC)c3ccccc3)c2)cc1,,"inconclusive: 6.31 µM [inhibitor, single point]"
COc1ccccc1NC(=S)Nc1cccc(F)c1,inactive: 16.2%,
O=C(c1cccc(F)c1)N1CCC(c2c[nH]c3ccccc23)(c2c[nH]c3ccccc23)CC1,inactive: 9.87% [at 46.1 µM],
COc1ccc(C(=O)Nc2nnc(S(=O)(=O)N3CCC(C)CC3)s2)cc1OC,,"inconclusive: 3.16 µM [activator, single point]"
COc1ccc(OCCSc2nnc(Cc3cccc4ccccc34)n2N)cc1,,"inconclusive: 18.4 µM [inhibitor, partial curve, poor fit]"
COc1ccc(N=Nc2nc(-c3ccccc3)c(-c3ccccc3)[nH]2)cc1,inactive: -5.25%,
O=C(NCCCCc1ccccc1)Nc1cccc(F)c1,,"inconclusive: 15.8 µM [inhibitor, partial curve, poor fit]"
CCOC(=O)c1cc(-c2ccc(F)cc2)n(CCC(=O)NCc2ccccc2OC)c1C,,"inconclusive: 11.2 µM [inhibitor, partial curve, poor fit]"
